Assay results published in the supplement of paper PMC3334620.
The full ranking holds about 33,000 sequences; the median of “E-score (-0.5 to 0.5)” is about -0.0059, and the highest 2% start at about 0.26. This is one part of the list.

Each sequence was assayed against T1, Cin5 (UniProt P40917) (assay: PBM E-score (8-mer binding enrichment) (E-score (-0.5 to 0.5)); higher = stronger / more preferred TF binding). Details: protein concentration: 100 nM; construct: GST-full length.
T1 sequence: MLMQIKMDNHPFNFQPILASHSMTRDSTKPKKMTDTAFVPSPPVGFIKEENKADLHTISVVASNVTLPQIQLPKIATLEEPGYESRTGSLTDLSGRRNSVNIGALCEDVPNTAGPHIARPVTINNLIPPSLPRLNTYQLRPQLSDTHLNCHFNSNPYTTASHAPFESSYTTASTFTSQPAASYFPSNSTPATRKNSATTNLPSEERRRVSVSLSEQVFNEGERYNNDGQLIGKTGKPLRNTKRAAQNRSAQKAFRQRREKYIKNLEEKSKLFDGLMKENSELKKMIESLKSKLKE
Procedure, shortened: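 E-scores (a modified Wilcoxon-Mann-Whitney statistic) were assigned by the Universal PBM Analysis Suite to every ungapped eight-base word pooled with its reverse complement. The input came from universal all-10-mer Agilent arrays made double-stranded by primer extension and probed with GST-tagged yeast transcription factors at about 100-200 nM. Fluorescent anti-GST detected bound protein, and masliner normalised the scans.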

Sequence | PBM E-score
CGCACAGA | -0.0574
CTCCGTAA | -0.0215
CCCATCTC | 0.0223
AAGCGGAG | -0.133
CCCTTGAC | -0.232
CAACTATG | 0.176
CAGGACTA | -0.0704
CGATTTCA | 0.0165
CTCGTTTA | 0.0384
CGTTTCCA | 0.0865
AAGATCTT | 0.0707
CGGCGTCA | -0.0143
CTTTTTAA | -0.0274
CTCTGCAG | -0.125
ACAAGCGG | 0.175
AATAGACC | -0.0281
ACCGTAAT | 0.223
GATGTCAC | 0.159
ATGAGAAC | 0.129
ATCATGAC | 0.233
ACTATCAA | 0.187
CCAGCCGA | -0.18
CGGAACTC | 0.0803
CACCGTAC | -0.0221
AAATCCTG | 0.016

Reprinted at random: three entries already listed, in no set order.
Sequence | PBM E-score
CAGGACTA | -0.0704
AAATCCTG | 0.016
CTCCGTAA | -0.0215

Single values from the results shown.
AAGCGGAG – PBM E-score: -0.133
CACCGTAC – PBM E-score: -0.0221
CGGAACTC – PBM E-score: 0.0803

Following part:

Sequence | PBM E-score
CATGCTTA | 0.259
TCTAATCA | 0.231
GGATTTTA | -0.0448
CTACGTAG | 0.0359
AAGCGTCT | -0.221
AGGCCTTA | -0.154
CAATGACG | -0.163
TATTATCA | 0.242
ATGTAAGC | 0.431
CCTAAAGA | -0.182
GTAATCGA | 0.275
TGGAAACA | 0.13
GAGATTCA | 0.0245
AGTGGCTA | -0.097
ACGAACAC | -0.0117
ATGTGATC | 0.129
CGTATAAA | 0.168
GCCTATCA | 0.074
ATATAGGA | 0.136
GCGGGGGA | -0.268
ATCACTTG | 0.0196
GGTCGCAA | -0.0356
CCATCACC | 0.0838
CCAAGGCA | -0.115
ACCGTGTC | -0.15

Sequence | PBM E-score
GACCCAAC | -0.0281
ACACTTCC | 0.00972
AATGTCGC | 0.0785
CTCCGGCA | -0.0384
GGGTCGAC | -0.075
CAGCGTAC | -0.141
CTCCTTTC | -0.12
AAGCTTTA | -0.0115
ACTGTAGA | 0.136
CGGGGTAC | -0.164
CAGGTCGC | -0.113
TCAAATAA | 0.047
ATTTCTCA | 0.0803
AGGGTATA | 0.142
ATGGGTTC | -0.132
GACAGATC | 0.109
ACAAAACC | 0.228
AACTCCCT | -0.142
CATTTATC | 0.0882
ACCTCGGG | -0.158
GAGGGTAA | -0.0367
ACGATTCT | 0.14
GTTTTATA | 0.148
ACTCAATG | 0.101
ACTCCGAG | 0.0431

Sequence | PBM E-score
CTGCTCTC | -0.109
GCATCTAC | 0.12
GACGACCC | -0.136
CGCCGTAC | -0.141
CAGCTTTC | -0.0153
GCGGGGCA | -0.0914
AACAGAAG | -0.0414
GACTCAGC | 0.0183
ACTCAGTA | 0.204
CAACGCCG | -0.0628
CCACAAGC | -0.23
CCGTGTAA | -0.059
AAGGCACC | -0.0903
CTACTCAA | 0.106
ACGTGTCA | -0.00138
GCGGTGAC | -0.129
TAAGGCCA | -0.119
CTACGCGC | 0.00209
GCGATTGA | -0.0807
ACAGTTCT | 0.0817
CGAGCAAG | -0.111
TCTGCGAA | -0.224
AAGCTATG | -0.085
GCACAACA | 0.0626
TCGCTCCA | -0.181

Sequence | PBM E-score
ACCACTGC | -0.0496
AGGACGCA | 0.0285
CCCCGCGG | -0.0531
GGTCGCTA | -0.112
GGTTTATA | -0.00975
GATCGTCA | -0.0267
AAGAGCAG | -0.139
ACTCGGAT | 0.109
CGCACGAA | -0.00612
CAAGTCGA | -0.0845
AGCCCGAA | -0.147
GACTTCAA | -0.0601
ACTTGGTG | -0.0186
ACAGCGTG | -0.0933
CCGGTGTC | -0.189
AGAGAACT | -0.132
CAATTAGA | 0.193
CACGTGAC | -0.0993
AATAATCA | 0.257
CCATCGGC | -0.139
CTCTTCAC | -0.0426
GCTTTTGA | -0.136
CATCATGG | 0.154
CCGCGATA | 0.107
CATTTTAA | 0.0885

Sequence | PBM E-score
AGCTCCAG | -0.203
GCACGAGA | -0.0641
GCCGGTTA | -0.0397
AGAGCACA | 0.0787
TACGACCA | -0.139
ACCTATAT | 0.269
CCGGTAGA | -0.0367
AATCGCTC | -0.00659
GAAGTATC | 0.0945
ACTGGGAA | 0.17
ACGTGAGT | -0.00685
AAGTTATG | 0.25
ATCTACGA | -0.164
CAACCAGG | -0.168
CTTAAGTA | 0.12
CCAATTCA | 0.243
GGTAAATA | 0.0538
CCTGTACA | -0.114
ACGGAGGG | -0.00228
AGCATGGC | -0.129
CATGTGCA | -0.185
AGTTACCA | 0.0365
CGCAAGAC | -0.154
AGGAGACG | -0.228
GCGGGATA | 0.0615

Sequence | PBM E-score
CCACACAG | 0.00178
ATACATAA | 0.286
GCCATATA | 0.0878
GCTCTGGA | 0.0948
AGCTCCCT | -0.245
AGCGATCC | -0.0288
CAGGCATG | -0.114
AACGATGT | 0.0581
CAGCGACG | -0.205
GCTAGACC | -0.267
CATAGAAA | 0.173
GTTACGTA | 0.305
ATGCAGGA | -0.0613
ATAACCAG | 0.0194
ATCGCCAG | -0.021
AAGCGTAG | -0.0586
AATGAGAT | 0.242
CCAAAGAC | -0.185
ACACAAGT | 0.0985
TAAGTCCA | -0.0817
ATTCTCTA | 0.161
CCAGATGC | -0.138
